From patent US9822095B2, “Tetrazolinone compound and application thereof” (SUMITOMO CHEMICAL COMPANY, LIMITED, priority 2014, dated 2017)
Some entries share one result that the patent states for a list of compounds.

Experiments:
Type in all cases: in vivo
[1] = tested on: barley leaf blotch fungus (Rhynchosporium secalis); experiment: Test Example 3: barley leaf blotch control, foliar spray before inoculation; settings: 200 ppm foliar spray; barley (NISHINOHOSHI); inoculated 2 days after spraying; 3 days high humidity then 7 days greenhouse
[2] = tested on: cucumber target leaf spot fungus (Corynespora cassiicola); experiment: Test Example 5: cucumber target leaf spot control, foliar spray before inoculation; settings: 200 ppm foliar spray; cucumber (SAGAMI HANJIRO); inoculated 1 day after spraying; investigated after 7 days
[3] = tested on: barley net blotch fungus (Pyrenophora teres); experiment: Test Example 2: barley net blotch control, foliar spray before inoculation; settings: 500 ppm foliar spray; barley (NISHINOHOSHI); inoculated 2 days after spraying; 3 days high humidity then 7 days greenhouse
[4] = tested on: cotton aphid (Aphis gossypii); experiment: Test Example 6: cotton aphid control on cucumber seedlings, spray; settings: 500 ppm, 20 mL dilution of Formulation Example 5 sprayed on cucumber seedlings 1 day after inoculation; counted after 6 days
[5] = tested on: wheat leaf blotch fungus (Septoria tritici); experiment: Test Example 4: wheat leaf blotch control, foliar spray before inoculation; settings: 200 ppm foliar spray; wheat (APOGEE); inoculated 4 days after spraying; 3 days high humidity then 14 to 18 days under illumination

Cc1cc(-c2ccccc2C)ccc1SCc1c(C)cccc1-n1nnn(C)c1=O [present compound 1, 1-{2-[4-(2-methyl-phenyl)-2-methylphenylthiomethyl]-3-methylphenyl}-4-methyl-1,4-dihydrotetrazol-5-one]
area of lesion on the treated plant relative to that on an untreated plant [1]: ≤ 30%
area of lesion on the treated plant relative to that on an untreated plant [2]: ≤ 30%
area of lesion on the treated plant relative to that on an untreated plant [3]: ≤ 30%
control value [4]: ≥ 80%
area of lesion on the treated plant relative to that on an untreated plant [5]: ≤ 30%

Cc1cccc(-n2nnn(C)c2=O)c1CSc1ccc(-c2ccccc2)cc1 [present compound 2, 1-{2-[4-phenyl-phenylthiomethyl]-3-methylphenyl}-4-methyl-1,4-dihydrotetrazol-5-one]
area of lesion on the treated plant relative to that on an untreated plant [1]: ≤ 30%
area of lesion on the treated plant relative to that on an untreated plant [2]: ≤ 30%
area of lesion on the treated plant relative to that on an untreated plant [3]: ≤ 30%
area of lesion on the treated plant relative to that on an untreated plant [5]: ≤ 30%

Cc1ccccc1-c1ccc(SCc2c(C)cccc2-n2nnn(C)c2=O)cc1 [present compound 3, 1-{2-[4-(2-methyl-phenyl)-phenylthiomethyl]-3-methylphenyl}-4-methyl-1,4-dihydrotetrazol-5-one]
area of lesion on the treated plant relative to that on an untreated plant [1]: ≤ 30%
area of lesion on the treated plant relative to that on an untreated plant [2]: ≤ 30%
area of lesion on the treated plant relative to that on an untreated plant [3]: ≤ 30%
control value [4]: ≥ 80%
area of lesion on the treated plant relative to that on an untreated plant [5]: ≤ 30%

Cc1ccc(-c2ccc(SCc3c(C)cccc3-n3nnn(C)c3=O)cc2)cc1 [present compound 4, 1-{2-[4-(4-methyl-phenyl)-phenylthiomethyl]-3-methylphenyl}-4-methyl-1,4-dihydrotetrazol-5-one]
area of lesion on the treated plant relative to that on an untreated plant [1]: ≤ 30%
area of lesion on the treated plant relative to that on an untreated plant [3]: ≤ 30%
area of lesion on the treated plant relative to that on an untreated plant [5]: ≤ 30%

Cc1cccc(-n2nnn(C)c2=O)c1CSc1ccc(-c2cccc(Cl)c2)cc1 [present compound 5, 1-{2-[4-(3-chloro-phenyl)-phenylthiomethyl]-3-methylphenyl}-4-methyl-1,4-dihydrotetrazol-5-one]
area of lesion on the treated plant relative to that on an untreated plant [1]: ≤ 30%
area of lesion on the treated plant relative to that on an untreated plant [3]: ≤ 30%
area of lesion on the treated plant relative to that on an untreated plant [5]: ≤ 30%

Cc1cc(-c2ccccc2)ccc1SCc1c(C)cccc1-n1nnn(C)c1=O [present compound 7, 1-{2-[4-phenyl-2-methyl-phenylthiomethyl]-3-methylphenyl}-4-m ethyl-1,4-dihydrotetrazol-5-one]
area of lesion on the treated plant relative to that on an untreated plant [1]: ≤ 30%
area of lesion on the treated plant relative to that on an untreated plant [2]: ≤ 30%
area of lesion on the treated plant relative to that on an untreated plant [3]: ≤ 30%
control value [4]: ≥ 80%
area of lesion on the treated plant relative to that on an untreated plant [5]: ≤ 30%

Cc1cc(-c2ccccn2)ccc1SCc1c(C)cccc1-n1nnn(C)c1=O [present compound 10, 1-{2-[4-(pyridin-2-yl)-2-methylphenylthiomethyl]-3-methylphenyl}-4-methyl-1,4-dihydrotetrazol-5-one]
area of lesion on the treated plant relative to that on an untreated plant [1]: ≤ 30%
area of lesion on the treated plant relative to that on an untreated plant [2]: ≤ 30%
area of lesion on the treated plant relative to that on an untreated plant [3]: ≤ 30%
area of lesion on the treated plant relative to that on an untreated plant [5]: ≤ 30%

Cc1cc(-c2ccccn2)c(C)cc1SCc1c(C)cccc1-n1nnn(C)c1=O [present compound 11, 1-{2-[4-(pyridin-2-yl)-2,5-dimethylphenylthiomethyl]-3-methylphenyl}-4-methyl-1,4-dihydrotetrazol-5-one]
area of lesion on the treated plant relative to that on an untreated plant [1]: ≤ 30%
area of lesion on the treated plant relative to that on an untreated plant [2]: ≤ 30%
area of lesion on the treated plant relative to that on an untreated plant [3]: ≤ 30%
area of lesion on the treated plant relative to that on an untreated plant [5]: ≤ 30%
